# The shares of active, inactive and inconclusive entries below differ from those in the screen. Where the call is inconclusive, the potency comes from a doubtful curve fit. Active and inactive are the calls of the source. How the source made its calls: active means hit-call score of the fitted dose curve at least 0.9, where 1 is the maximum; inconclusive means response in the unintended direction; inactive means score below 0.9.
# The chains behind the UniProt entries cited, without tags or fusion partners.
# UniProt P04637, whole entry, looked up: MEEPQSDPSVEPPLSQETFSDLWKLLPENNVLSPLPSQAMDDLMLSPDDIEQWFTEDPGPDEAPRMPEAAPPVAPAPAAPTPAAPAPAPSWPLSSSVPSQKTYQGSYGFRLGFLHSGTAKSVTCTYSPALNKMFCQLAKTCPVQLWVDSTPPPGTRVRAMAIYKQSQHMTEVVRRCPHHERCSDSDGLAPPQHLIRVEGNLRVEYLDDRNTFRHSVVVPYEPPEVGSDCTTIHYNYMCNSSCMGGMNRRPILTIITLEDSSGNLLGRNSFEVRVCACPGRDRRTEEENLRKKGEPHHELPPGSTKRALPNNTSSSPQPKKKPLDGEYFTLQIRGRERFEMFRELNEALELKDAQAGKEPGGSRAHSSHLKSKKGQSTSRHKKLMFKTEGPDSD
# Experiments:
# [1] = Tanguay_ZF_120hpf_YSE_legacy: (Legacy) Oregon State University Tanguay Lab 120 Hour Post-fertilization zebrafish Assay for Yolk Sac Edema (AID 2283634);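 further: actives raise the incidence of yolk sac edema above the DMSO baseline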
# How it was run: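 Dechorionate (pronase, 4 hpf) → place one 6 hpf embryo per well → static compound exposure, sealed and foil-covered, 28C, to 120 hpf → record yolk sac edema as present or absent. Final DMSO 0.64%.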
# [2] = Tanguay_ZF_120hpf_OTIC_legacy: (Legacy) Oregon State University Tanguay Lab 120 Hour Post-fertilization zebrafish Assay for Otic Vesicle Malformation (AID 2283639)
# How it was run: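 Tropical 5D wild-type zebrafish embryos statically exposed in 0.64% DMSO at 28C until 120 hpf; 5uM trimethyltin chloride as positive control. Otic vesicle malformation scored present/absent by brightfield; dead embryos not scored; gain fitted versus DMSO.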
# [3] = Tanguay_ZF_120hpf_AXIS_legacy: (Legacy) Oregon State University Tanguay Lab 120 Hour Post-fertilization zebrafish Assay for Body Axis Malformation (AID 2283635);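 on AC50: potency for an increased fraction of larvae scored with body axis malformation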
# How it was run: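 Chorion is removed with pronase at 4 hpf, then single 6 hpf embryos are dosed (final DMSO 0.64%) and held statically at 28C in sealed, foil-covered plates. At 120 hpf body axis malformation is recorded as present or absent.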
# [4] = Tanguay_ZF_120hpf_EYE_legacy: (Legacy) Oregon State University Tanguay Lab 120 Hour Post-fertilization zebrafish Assay for Eye Malformation (AID 2283636)
# How it was run: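 Read-out is binary presence or absence of eye malformation, scored by brightfield microscopy at 120 hpf. Single larvae were exposed from 6 hpf in embryo medium containing 0.64% DMSO, with DMSO as baseline.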
# [5] = Tanguay_ZF_120hpf_JAW_legacy: (Legacy) Oregon State University Tanguay Lab 120 Hour Post-fertilization zebrafish Assay for Jaw Malformation (AID 2283638);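 on AC50: active means more embryos with jaw malformation than DMSO controls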
# How it was run: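 Steps: dechorionate 4 hpf embryos (pronase); plate 1/well at 6 hpf; add test chemical, 0.64% DMSO final; seal, cover, hold at 28C statically to 120 hpf; score jaw defect presence/absence microscopically. Dead embryos not scored.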
# [6] = molecular target: Cellular tumor antigen p53 (Homo sapiens) (UniProt P04637); experiment: TOX21_p53_BLA_p4_ratio: Tox21 HCT-116 p53 Agonism Beta-lactamase Assay, Ratio, Phase 4 (AID 2283601)
# How it was run: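 Signal is the blue/green (460nm/530nm) ratio of cleaved versus uncleaved CCF4-AM substrate, read after 2 h substrate loading. Cells were HCT116 carrying the p53-responsive beta-lactamase reporter, dosed 16 h at 37C, 5% CO2; CellTiter-Glo measured in parallel.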
# [7] = Tanguay_ZF_120hpf_SNOU_legacy: (Legacy) Oregon State University Tanguay Lab 120 Hour Post-fertilization zebrafish Assay for Snout Malformation (AID 2283637)
# How it was run: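 Snout malformation read as a yes/no call on brightfield images of 120 hpf larvae (Tropical 5D strain). Static exposure began at 6 hpf on dechorionated embryos in 0.64% DMSO, with gain of signal analysed versus DMSO controls.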
compound,measurement,setting,value
C/C=C/C=C/C(=O)O,AC50,[1],inconclusive: 4.46 µM
same,AC50,[2],inconclusive: 12.6 µM
NC(N)=O,outcome,[3],inactive
same,AC50,[4],inconclusive: 160 µM
same,AC50,[5],inconclusive: 202 µM
C=CCc1cc(S(=O)(=O)c2ccc(O)c(CC=C)c2)ccc1O,outcome,[3],inactive
NC(=O)N(O)[C@@H]1COc2cc(OCc3ccccc3)ccc21,AC50,[3],inconclusive: 186 µM
Cc1nc(-c2ccccn2)ncc1C(=O)Nn1cc(C)c2cc(F)ccc21,outcome,[4],inactive
COc1ccc([N+](=O)[O-])cc1N,outcome,[6],inactive
same,outcome,[4],inactive
COS(C)(=O)=O,outcome,[5],inactive
Cc1oc2c(NC(=O)c3c(Cl)cccc3Cl)cccc2c1C(C)(C)O,AC50,[6],inconclusive: 25.8 µM
same,outcome,[2],inactive
C#CC(O)C(CC)CCCC (stereo unspecified),outcome,[3],inactive
C=C(C)C(=O)OCCOC1CC2CC1C1C=CCC21 (stereo unspecified),AC50,[6],inconclusive: 48.9 µM
O=C(O)[C@H](O)[C@@H](O)C(=O)O,AC50,[4],inconclusive: 1.72 µM
OCCNCc1ccccc1,AC50,[6],inconclusive: 46.1 µM
CCN(CC)C(=S)SSC(=S)N(CC)CC,AC50,[7],active: 1.4 µM
O=C(NS(=O)(=O)/C=C/c1cccs1)c1ccc(F)cc1Br,outcome,[4],inactive
COc1c2ccoc2cc2oc(=O)ccc12,outcome,[6],inactive
Oc1ccc2c(c1)-c1ccccc1C2,AC50,[6],active: 79.7 µM
same,AC50,[3],active: 35.5 µM
CCCN(CCC)C(=O)SCC,AC50,[6],inconclusive: 46.1 µM
same,AC50,[4],inconclusive: 58.9 µM
same,AC50,[2],inconclusive: 5.28 µM
CN(C)c1ccc(N=NS(=O)(=O)O)cc1,AC50,[4],inconclusive: 191 µM
CCCC=O,AC50,[6],inconclusive: 45.2 µM
O=S(=O)(O)c1ccc(N=Nc2c(O)ccc3cc(S(=O)(=O)O)ccc23)cc1,AC50,[5],inconclusive: 122 µM
CN1CCC[C@H]1c1cccnc1,outcome,[5],inactive
CC(=O)OC1CC(C)OC(C)O1 (stereo unspecified),outcome,[4],inactive
same,AC50,[2],inconclusive: 3.39 µM
Cc1[nH]nc2c1N=C(c1ccccc1Cl)c1cc([N+](=O)[O-])ccc1N2,AC50,[4],inconclusive: 32 µM
same,outcome,[5],inactive
OC[C@H]1O[C@@H]2O[C@H]3[C@H](O)[C@@H](O)[C@@H](O[C@H]4[C@H](O)[C@@H](O)[C@@H](O[C@H]5[C@H](O)[C@@H](O)[C@@H](O[C@H]6[C@H](O)[C@@H](O)[C@@H](O[C@H]7[C@H](O)[C@@H](O)[C@@H](O[C@H]1[C@H](O)[C@H]2O)O[C@@H]7CO)O[C@@H]6CO)O[C@@H]5CO)O[C@@H]4CO)O[C@@H]3CO,outcome,[2],inactive
Cn1cc[nH]c1=S,AC50,[1],inconclusive: 202 µM
same,AC50,[3],inconclusive: 198 µM
CCCCCCCC1CCC(=O)O1 (stereo unspecified),AC50,[1],active: 25.9 µM
same,AC50,[7],active: 31.9 µM
same,AC50,[2],inconclusive: 2.99 µM
CC(=O)c1ccc2c(c1)[C@H](NC(=O)c1ccc(F)cc1)[C@@H](O)C(C)(C)O2,outcome,[6],inactive
same,AC50,[4],inconclusive: 111 µM
COCC(C)OCC(C)O (stereo unspecified),AC50,[1],inconclusive: 109 µM
same,AC50,[3],inconclusive: 202 µM
same,outcome,[5],inactive
Cc1ccc(S(=O)(=O)NC(=O)NN2CCCCCC2)cc1,AC50,[1],inconclusive: 2.66 µM
same,AC50,[7],inconclusive: 128 µM
O=C(Nc1ccccc1)c1ccccc1O,outcome,[6],inactive
C=CCOC(Cn1ccnc1)c1ccc(Cl)cc1Cl (stereo unspecified),AC50,[5],active: 3.98 µM
same,AC50,[2],inconclusive: 15.7 µM
OCc1ccccc1,outcome,[2],inactive
CS(=O)(=O)c1ccc([C@@H](CC2CCCC2)C(=O)Nc2cnccn2)cc1Cl,outcome,[4],inactive

# An excerpt of these results, with bars between the fields:
compound | measurement | setting | value
CCCN(CCC)C(=O)SCC | AC50 | [2] | inconclusive: 5.28 µM
CN(C)c1ccc(N=NS(=O)(=O)O)cc1 | AC50 | [4] | inconclusive: 191 µM
CCCC=O | AC50 | [6] | inconclusive: 45.2 µM
O=S(=O)(O)c1ccc(N=Nc2c(O)ccc3cc(S(=O)(=O)O)ccc23)cc1 | AC50 | [5] | inconclusive: 122 µM

# Source: PubChem BioAssay (EPA / NIEHS)
